Experimental data from PubChem BioAssay AID330 (DTP/NCI, 2004).
The list shows only some results of the screen, not a fair sample: it is rich in T/C values a quarter to a half above the control, in often repeated tests (any T/C) and in doses without a T/C. Further doses and runs are listed elsewhere. T/C: endpoint of the treated group in % of that of the vehicle group. Some entries give survivors of the animals treated and no T/C: the source files T/C as zero there, which appears to mark a toxic dose or a test without result, not a measured value. Some doses without a T/C left all or most animals alive at the check, yet need not have been tolerated: survival well below the control is almost never listed, so the zero probably covers shortened survival too. Survivors were counted at the toxicity check, usually on the fifth day, unless a day is given; later deaths do not show. Schedules are NCI's codes, read here as Q, the interval in days (D) or hours (H), X, the number of doses. Some entries hold several experiments; the results are listed from low to high. Where survival is the endpoint, the PubChem record calls one and a half times the control and up active, and a quarter to a half above the control has no call in these data; cut-offs in other NCI protocols can differ.

System: P388 leukemia ip, CD2F1 mice, survival T/C
Experiment: NCI In Vivo Anticancer Drug Screen. Data for tumor model P388 Leukemia (intraperitoneal) in CD2F1 (CDF1) mice
Conditions: T/C endpoint: median survival time, higher T/C = longer survival
[1] = dose: 50.0 mg/kg/injection, schedule: Q01DX009 (ip), vehicle: saline with Tween-80
[2] = dose: 100.0 mg/kg/injection, schedule: Q01DX009 (ip), vehicle: saline with Tween-80
[3] = dose: 200.0 mg/kg/injection, schedule: Q01DX009 (ip), vehicle: saline with Tween-80
[4] = dose: 200.0 mg/kg/injection, schedule: Q01DX005 (ip), vehicle: saline with Tween-80
[5] = dose: 100.0 mg/kg/injection, schedule: Q01DX009 (ip), vehicle: Klucel (hydroxypropylcellulose) (HPC)
[6] = dose: 200.0 mg/kg/injection, schedule: Q01DX009 (ip), vehicle: Klucel (hydroxypropylcellulose) (HPC)
[7] = dose: 200.0 mg/kg/injection, schedule: Q01DX009 (ip), vehicle: saline
[8] = dose: 400.0 mg/kg/injection, schedule: Q01DX009 (ip), vehicle: saline with Tween-80
[9] = dose: 120.0 mg/kg/injection, schedule: Q01DX005 (ip), vehicle: saline with Tween-80
[10] = dose: 240.0 mg/kg/injection, schedule: Q01DX005 (ip), vehicle: saline with Tween-80

## O=c1c2ccccc2nc(-c2ccccc2)n1-c1nnc(C(F)(F)F)s1
[1]
  survivor count: 1 of 6
[2]
  survivor count: 0 of 6
[3]
  survivor count: 0 of 6

## CCC(C)C1NC(=O)C2CCCN2C(=O)C(CC(C)C)OC(=O)CCNC(=O)C(C)N(C)C(=O)C(C(C)C)N(C)C1=O (stereo not drawn)
dose: 20.0 mg/kg/injection, schedule: Q01DX005 (ip), vehicle: saline with Tween-80
  survivor count: 0 of 6
dose: 40.0 mg/kg/injection, schedule: Q01DX005 (ip), vehicle: saline with Tween-80
  survivor count: 0 of 6
dose: 80.0 mg/kg/injection, schedule: Q01DX005 (ip), vehicle: saline with Tween-80
  survivor count: 0 of 6

## COc1cc2c(cc1OC)C1Cc3cc(OC)c(OC)cc3[N+]1(C)CC2 (stereo not drawn)
[4]
  survivor count: 0 of 6

## COc1ccc(CN2CC(C)N(N=Cc3c4c(O)c5c(O)c(C)c6c(c5c3O)C(=O)C(C)(O/C=C/C(OC)C(C)C(OC(C)=O)C(C)C(O)C(C)C(O)C(C)/C=C/C=C(\C)C(=O)N4)O6)C(C)C2)cc1 (stereo not drawn)
[3]
  T/C: 138 % of control
dose: 400.0 mg/kg/injection, schedule: Q01DX009 (ip), vehicle: suspension in saline
  survivor count: 6 of 6

## CCOC(=O)/C(C#N)=C(/SC)N1CC1
[5]
  survivor count: 3 of 5
[6]
  survivor count: 0 of 4

## COc1ccc(CCN)c(OC)c1OC
[7]
  survivor count: 0 of 6 and 1 of 6

## Cc1ccc2c(ccc3c[n+]4ccccc4c(C)c32)c1
dose: 33.0 mg/kg/injection, schedule: Q04DX003 (ip), vehicle: saline with Tween-80
  survivor count: 5 of 6
dose: 50.0 mg/kg/injection, schedule: Q04DX003 (ip), vehicle: other
  survivor count: 0 of 6
dose: 50.0 mg/kg/injection, schedule: Q04DX003 (ip), vehicle: saline with Tween-80
  survivor count: 5 of 6
dose: 75.0 mg/kg/injection, schedule: Q04DX003 (ip), vehicle: saline with Tween-80
  survivor count: 5 of 6
dose: 100.0 mg/kg/injection, schedule: Q04DX003 (ip), vehicle: other
  survivor count: 0 of 6

## CC1=C(C#N)C(=N)OC1(C)C1CC(=O)C=CC1=O (stereo not drawn)
dose: 120.0 mg/kg/injection, schedule: Q01DX005 (ip), vehicle: suspension in saline
  T/C: 125 % of control
dose: 240.0 mg/kg/injection, schedule: Q01DX005 (ip), vehicle: suspension in saline
  T/C: 126 % of control

## CC1CCC(C(C)C2C(O)CC3C4CCC5CC(N)CCC5(C)C4CCC32C)=NC1 (stereo not drawn) (tested in a mixture with another compound)
dose: 50.0 mg/kg/injection, schedule: Q01DX009 (ip), vehicle: Klucel (hydroxypropylcellulose) (HPC)
  survivor count: 0 of 6

## Cc1cccc(-c2nc3c(C)nc(-c4ccccc4)nc3n2Nc2ccccc2)c1
dose: 200.0 mg/kg/injection, schedule: Q01DX001 (ip), vehicle: Klucel (hydroxypropylcellulose) (HPC)
  survivor count: 6 of 6
dose: 400.0 mg/kg/injection, schedule: Q01DX001 (ip), vehicle: Klucel (hydroxypropylcellulose) (HPC)
  survivor count: 6 of 6

## Cc1ccc(N=CN(C)C)c(Cl)c1
dose: 50.0 mg/kg/injection, schedule: Q04DX003 (ip), vehicle: Klucel (hydroxypropylcellulose) (HPC)
  survivor count: 5 of 6
dose: 100.0 mg/kg/injection, schedule: Q04DX003 (ip), vehicle: Klucel (hydroxypropylcellulose) (HPC)
  survivor count: 0 of 6
dose: 200.0 mg/kg/injection, schedule: Q04DX003 (ip), vehicle: Klucel (hydroxypropylcellulose) (HPC)
  survivor count: 0 of 6
dose: 400.0 mg/kg/injection, schedule: Q04DX003 (ip), vehicle: Klucel (hydroxypropylcellulose) (HPC)
  survivor count: 0 of 6

## O=C(O)C1CC1.[Ag]
dose: 1.56 mg/kg/injection, schedule: Q01DX009 (ip), vehicle: saline with Tween-80
  T/C: 135 % of control
dose: 25.0 mg/kg/injection, schedule: Q01DX009 (ip), vehicle: saline with Tween-80
  survivor count: 0 of 6
[1]
  survivor count: 0 of 6
[2]
  survivor count: 0 of 6
[3]
  survivor count: 0 of 6

## O=C1C=CC(=O)N1c1ccc(-c2nc3ccccc3o2)cc1
dose: 50.0 mg/kg/injection, schedule: Q01DX005 (ip), vehicle: saline with Tween-80
  survivor count: 3 of 5
dose: 100.0 mg/kg/injection, schedule: Q01DX005 (ip), vehicle: saline with Tween-80
  survivor count: 0 of 5 and 1 of 5

## COc1cc(NCC(O)CN2C(C)CCCC2C)c2ncccc2c1 (stereo not drawn)
dose: 25.0 mg/kg/injection, schedule: Q01DX005 (ip), vehicle: saline
  survivor count: 4 of 5
dose: 50.0 mg/kg/injection, schedule: Q01DX005 (ip), vehicle: saline
  survivor count: 0 of 5
dose: 100.0 mg/kg/injection, schedule: Q01DX005 (ip), vehicle: saline
  survivor count: 0 of 5
dose: 200.0 mg/kg/injection, schedule: Q01DX005 (ip), vehicle: saline
  survivor count: 0 of 5

## O=c1[nH]nnc2ccccc12
[6]
  survivor count: 0 of 6
dose: 400.0 mg/kg/injection, schedule: Q01DX009 (ip), vehicle: Klucel (hydroxypropylcellulose) (HPC)
  survivor count: 0 of 6

## O=C(O)c1cc(Cc2ccc(O)c(C(=O)O)c2)ccc1O (tested in a mixture with another compound)
[5]
  T/C: 125 % of control
[6]
  survivor count: 1 of 6 and 2 of 6

## Cc1ccc(S(=O)(=O)Sc2nnnn2C)cc1
[6]
  survivor count: 0 of 6

## COc1ccc(CCN2C(=O)CSC2=S)cc1OC
[8]
  survivor count: 4 of 6

## CNC(C#N)C(O)c1ccccc1 (stereo not drawn)
dose: 100.0 mg/kg/injection, schedule: Q01DX009 (ip), vehicle: saline
  survivor count: 2 of 6
[7]
  survivor count: 1 of 6

## CCOC(=O)C1=C(C(=O)c2ccc(OC)cc2)C(c2c(Cl)cccc2Cl)C(C(=O)c2ccc(OC)cc2)=C(C(=O)OCC)N1
[9]
  survivor count: 5 of 6

## N#Cc1cnn(-c2cc(Cl)ccc2Cl)c1N
[8]
  survivor count: 1 of 6 and 3 of 6

## CCOc1cc2c(cc1Cc1ccc(OC)cc1OC)OCO2
[9]
  T/C: 131 % of control
[10]
  T/C: 137 % of control
dose: 480.0 mg/kg/injection, schedule: Q01DX005 (ip), vehicle: saline with Tween-80
  T/C: 133 % of control

## CSc1nc(COC(=O)NC(C)C)c(COC(=O)NC(C)C)n1Cc1ccccc1
dose: 400.0 mg/kg/injection, schedule: Q01DX005 (ip), vehicle: saline with Tween-80
  survivor count: 3 of 6

## COc1ccc2c(c1O)-c1cc(O)cc3c1C(C2)N(C(=O)CN(CCCl)CCCl)CC3 (stereo not drawn)
dose: 3.13 mg/kg/injection, schedule: Q04DX003 (ip), vehicle: distilled water + Tween-80
  T/C: 130 % of control
dose: 6.25 mg/kg/injection, schedule: Q04DX003 (ip), vehicle: distilled water + Tween-80
  T/C: 149 % of control
dose: 100.0 mg/kg/injection, schedule: Q04DX003 (ip), vehicle: water
  survivor count: 3 of 6
dose: 200.0 mg/kg/injection, schedule: Q04DX003 (ip), vehicle: water
  survivor count: 0 of 6

## Cc1ccc(C2N3CCCN2CC3)cc1 (stereo not drawn)
[8]
  survivor count: 0 of 6

## CCN(CC)CCSCCN(CC)CC
[4]
  survivor count: 0 of 6

## O=C(CC1(O)C(=O)N(CN2CCCCC2)c2ccccc21)c1ccccc1 (stereo not drawn)
[3]
  survivor count: 6 of 6

## Clc1cccc(NCNC2Nc3ccccc3N2)c1
dose: 60.0 mg/kg/injection, schedule: Q01DX005 (ip), vehicle: saline with Tween-80
  survivor count: 6 of 6
[9]
  survivor count: 1 of 6
[10]
  survivor count: 0 of 6

## S=c1[nH]ccs1
dose: 100.0 mg/kg/injection, schedule: Q01DX009 (ip), vehicle: water
  survivor count: 2 of 6
dose: 200.0 mg/kg/injection, schedule: Q01DX009 (ip), vehicle: water
  survivor count: 0 of 6
